How the values were obtained:
monoclonal antibody 61C6 = assay: Cross-reactivity evaluation with lyophilized reagents (Bi-mAb-Beads capture, TAG Plus 1-5C-5-FU-BSA detector); type: binding, Balb/c mouse
Description: This experiment was performed to test the specificity of the monoclonal antibody 61C6 against 5-FU analogues, pro-drugs and interference reagents. […] In this Example, the components of 5-FU assay (capture, detector) were lyophilized and the sample (calibrator, controls, and spiked plasma samples) were added directly to the lyophilized reagent pellets.
The assay was prepared using the following protocol. […] The capture and the detector solutions were aliquoted (20 μL) and lyophilized.
The assay procedure was as follows. The electrostatic on the surface of the microplate was reduced by using a Zerostat Antistatic Device prior to use. The device was pointed on the surface of the microplate, squeezed and the trigger released a few times across the microplate. 1 lyophilized pellet of each capture and detector reagent was transferred into plate wells using the Vacuum Pick-Up System. A hollow needle tip was attached onto the pick-up pen, and the finger controlled vacuum was used for picking up (the index finger was placed over the hole so that vacuum was drawn through the needle) or releasing pellet (lifting the index finger off of the hole). On a metal plate holder of a Digital Heat Block set at 37±2° C., 50 μL of each calibrator, control, and sample (in this case cross-reactivity panels) were added in duplicate directly into plate wells containing 2 lyophilized pellets. The plate was placed on the Micromix shaker set at Form 8 & Amp 6 for 30 seconds to mix. The plate was then placed in the metal plate holder of a Digital Heat Block set at 37±2° C. The plate was covered with a plate cover and incubated for 5±0.5 minutes.

[1] = 5-FU ECL assay with antibody 61C6, summary of performance; type: binding; conditions: 5-FU assay with antibody 61C6
[2] = Without 5-FU, lyophilized reagents, human plasma

Row | Molecule | Measured Value (monoclonal antibody 61C6; With 1000 ng/mL Spiked 5-FU) | Measured Value (monoclonal antibody 61C6; With 75 ng/mL Spiked 5-FU) | Measured Value (monoclonal antibody 61C6; [2]) | LDL [1] | dynamic range [1]
1 | O=C1NCC(F)C(=O)N1 (stereo not shown) [DH5FU, 5-Fluorodihydropyrimidine-2,4-dione] | 1095 ng/mL | – | – | – | –
2 | Cc1cn([C@H]2C[C@H](O)[C@@H](CO)O2)c(=O)[nH]c1=O [Thymidine] | 1131 ng/mL | 178 ng/mL | 17 ng/mL | – | –
3 | Cc1c[nH]c(=O)[nH]c1=O [Thymine] | 1224 ng/mL | 322 ng/mL | 99 ng/mL | – | –
4 | CCCCCOC(=O)Nc1nc(=O)n([C@@H]2O[C@H](C)[C@@H](O)[C@H]2O)cc1F [Capecitabine] | 1058 ng/mL | 143 ng/mL | 1.9 ng/mL | – | –
5 | O=c1cc[nH]c(=O)[nH]1 [Uracil] | 1258 ng/mL | 419 ng/mL | 186 ng/mL | – | –
6 | O=C1[O][Pt]2([NH][C@@H]3CCCC[C@H]3[NH]2)[O]C1=O [Oxaliplatin] | 971 ng/mL | – | – | – | –
7 | CCc1c2c(nc3ccc(OC(=O)N4CCC(N5CCCCC5)CC4)cc13)-c1cc3c(c(=O)n1C2)COC(=O)[C@]3(O)CC [Irinotecan] | 1266 ng/mL | 139 ng/mL | – | – | –
8 | Nc1nc(=O)c2c([nH]1)NCC(CNc1ccc(C(=O)N[C@@H](CCC(=O)O)C(=O)O)cc1)N2C=O (mixture of isomers) [Folinic Acid] | 965 ng/mL | 129 ng/mL | 0.8 ng/mL | – | –
9 | O=c1ccn([C@@H]2O[C@H](CO)[C@@H](O)[C@H]2O)c(=O)[nH]1 [Uridine] | 1094 ng/mL | 234 ng/mL | 48 ng/mL | – | –
10 | CN(Cc1cnc2nc(N)nc(N)c2n1)c1ccc(C(=O)N[C@@H](CCC(=O)O)C(=O)O)cc1 [Methotrexate] | 1106 ng/mL | 108 ng/mL | 1.1 ng/mL | – | –
11 | N.N.[Cl][Pt][Cl] [Cisplatin] | 1116 ng/mL | – | – | – | –
12 | O=c1[nH]c(=O)n(C2CCCO2)cc1F (stereo not shown) [Tegafur] | 5543 ng/mL | 5723 ng/mL | 4229 ng/mL | – | –
13 | mAb 61C6: monoclonal anti-5-FU antibody, IgG2b κ; heavy chain SEQ ID NO:2, light chain SEQ ID NO:6; from 3-carbon linker immunogen (antibody, listed as Mus musculus, monoclonal anti-5-FU antibody, IgG2b κ; from 3-carbon linker immunogen) heavy: MDWLWNLLFLMAAAQSIQAQIQLVQSGPELKKPGETVTISCKASGYTLTNYGMNWVKQAPGKGLKWMGWINTNSGEPTYVEEFKGRFAFSLETSVSTVYLQISDLKHEDTATYFCARWGPHFNAYGWFAYWGQGTLVTVSAAKTTPPSVYPLAPGCGDTTGSSVTLGCLVKGYFPESVTVTWNSGSLSSSVHTFPALLQSGLYTMSSSVTVPSSTWPSQTVTCSVAHPASSTTVDKKLEPSGPISTINPCPPCKECHKCPAPNLEGGPSVFIFPPNIKDVLMISLTPKVTCVVVDVSEDDPDVQISWFVNNVEVHTAQTQTHREDYNSTIRVVSTLPIQHQDWMSGKEFKCKVNNKDLPSPIERTISKIKGLVRAPQVYILPPPAEQLSRKDVSLTCLVVGFNPGDISVEWTSNGHTEENYKDTAPVLDSDGSYFIYSKLNMKTSKWEKTDSFSCNVRHEGLKNYYLKKTISRSPGK light: MMSSAQFLGLLLLCFQGTRCYIQMTQTASSLSASLGDRVTISCRASQDIWNYLNWYQQKPDGTIKLLIYYKSRLHSGVPSRFSGSGSGIDFSLTISNLEQEDFATYFCQQGHTLPWTFGGGSKLEIKRADAAPTVSIFPPSSEQLTSGGASVVCFLNNFYPKDINVKWKIDGSERQNGVLNSWTDQDSKDSTYSMSSTLTLTKDEYERHNSYTCEATHKTSTSPIVKSFNRNEC | – | – | – | < 5.0 ng/mL | 10-30,000 ng/mL
